Measurements from paper PMC6857042.
No constants are given. Whether binding was seen depends on the method and setting. In cells and extracts the contact can be indirect. Here binding means that the protein was enriched with, or labelled near, the bait; the list need not be complete.

Amino acid sequences for entries named in this document (tags omitted).
UniProt Q9HB71: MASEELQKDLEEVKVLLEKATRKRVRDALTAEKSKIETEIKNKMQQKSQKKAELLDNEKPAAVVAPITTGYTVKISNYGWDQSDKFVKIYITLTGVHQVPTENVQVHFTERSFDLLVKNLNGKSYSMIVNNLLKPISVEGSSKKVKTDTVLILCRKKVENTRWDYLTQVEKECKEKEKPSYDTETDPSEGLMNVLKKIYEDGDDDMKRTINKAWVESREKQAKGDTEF
UniProt Q9UNE7: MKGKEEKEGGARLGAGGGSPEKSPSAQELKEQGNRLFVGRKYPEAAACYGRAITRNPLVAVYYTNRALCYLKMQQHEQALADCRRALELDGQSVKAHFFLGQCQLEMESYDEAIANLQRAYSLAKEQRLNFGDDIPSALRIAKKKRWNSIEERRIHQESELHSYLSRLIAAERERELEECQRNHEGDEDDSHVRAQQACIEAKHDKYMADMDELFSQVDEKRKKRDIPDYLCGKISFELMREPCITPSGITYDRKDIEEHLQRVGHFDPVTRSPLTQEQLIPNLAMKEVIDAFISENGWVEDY

B1: endogenous RNF41 (293T) (protein, UniProt Q9H4P4 1-317)
chain: MGYDVTRFQGDVDEDLICPICSGVLEEPVQAPHCEHAFCNACITQWFSQQQTCPVDRSVVTVAHLRPVPRIMRNMLSKLQIACDNAVFGCSAVVRLDNLMSHLSDCEHNPKRPVTCEQGCGLEMPKDELPNHNCIKHLRSVVQQQQTRIAELEKTSAEHKHQLAEQKRDIQLLKAYMRAIRSVNPNLQNLEETIEYNEILEWVNSLQPARVTRWGGMISTPDAVLQAVIKRSLVESGCPASIVNELIENAHERSWPQGLATLETRQMNRRYYENYVAKRIPGKQAVVVMACENQHMGDDMVQEPGLVMIFAHGVEEI
B2: TRAF3IP1 (protein, UniProt Q8TDR0 1-691)
chain: MNAAVVRRTQEALGKVIRRPPLTEKLLSKPPFRYLHDIITEVIRMTGFMKGLYTDAEMKSDNVKDKDAKISFLQKAIDVVVMVSGEPLLAKPARIVAGHEPERTNELLQIIGKCCLNKLSSDDAVRRVLAGEKGEVKGRASLTSRSQELDNKNVREEESRVHKNTEDRGDAEIKERSTSRDRKQKEELKEDRKPREKDKDKEKAKENGGNRHREGERERAKARARPDNERQKDRGNRERDRDSERKKETERKSEGGKEKERLRDRDRERDRDKGKDRDRRRVKNGEHSWDLDREKNREHDKPEKKSASSGEMSKKLSDGTFKDSKAETETEISTRASKSLTTKTSKRRSKNSVEGRKEDNISAKSLDSIVSGINNEPNQETTTSEIGTKEANINSTSISDDNSASLRCENIQPNPTEKQKGDSTSDAEGDAGPAGQDKSEVPETPEIPNELSSNIRRIPRPGSARPAPPRVKRQDSMEALQMDRSGSGKTVSNVITESHNSDNEEDDQFVVEAAPQLSEMSEIEMVTAVELEEEEKHGGLVKKILETKKDYEKLQQSPKPGEKERSLFESAWKKEKDIVSKEIEKLRTSIQTLCKSALPLGKIMDYIQEDVDAMQNELQMWHSENRQHAEALQQEQRITDCAVEPLKAELAELEQLIKDQQDKICAVKANILKNEEKIQKMVYSINLTSRR

What follows are molecules tested against SFB-tagged CACYBP (calcyclin-binding protein) (human) (UniProt Q9HB71) (assay: affinity purification with mass spectrometry; two-step TAP of SFB-CACYBP from transfected 293T cells (Streptavidin Sepharose, biotin elution, S-protein agarose) in NETN buffer at 4°C; SDS-PAGE, silver staining, bands excised, MS).
With STUB1 (from UniProt Q9UNE7 1-303) the binding was “binds”.
In the case of B1, the binding is reported as “binds”.
For B2, the binding was “binds”.
